No constants are given. Whether binding was seen depends on the method and setting. Some entries that bind do so weakly or less than the wild type. For part of these data: Sequences can lack the tags named with a protein.

The target of assay [1] is T1, HUB2, At1g55250, Arabidopsis thaliana (Arabidopsis thaliana, UniProt Q9C895 1-900).
T1 construct: As prey the endogenous protein of Arabidopsis cell culture; as bait N-terminal GS-TAP fusion; in yeast two-hybrid an AD fusion; also called AAG51572.1
T1 sequence: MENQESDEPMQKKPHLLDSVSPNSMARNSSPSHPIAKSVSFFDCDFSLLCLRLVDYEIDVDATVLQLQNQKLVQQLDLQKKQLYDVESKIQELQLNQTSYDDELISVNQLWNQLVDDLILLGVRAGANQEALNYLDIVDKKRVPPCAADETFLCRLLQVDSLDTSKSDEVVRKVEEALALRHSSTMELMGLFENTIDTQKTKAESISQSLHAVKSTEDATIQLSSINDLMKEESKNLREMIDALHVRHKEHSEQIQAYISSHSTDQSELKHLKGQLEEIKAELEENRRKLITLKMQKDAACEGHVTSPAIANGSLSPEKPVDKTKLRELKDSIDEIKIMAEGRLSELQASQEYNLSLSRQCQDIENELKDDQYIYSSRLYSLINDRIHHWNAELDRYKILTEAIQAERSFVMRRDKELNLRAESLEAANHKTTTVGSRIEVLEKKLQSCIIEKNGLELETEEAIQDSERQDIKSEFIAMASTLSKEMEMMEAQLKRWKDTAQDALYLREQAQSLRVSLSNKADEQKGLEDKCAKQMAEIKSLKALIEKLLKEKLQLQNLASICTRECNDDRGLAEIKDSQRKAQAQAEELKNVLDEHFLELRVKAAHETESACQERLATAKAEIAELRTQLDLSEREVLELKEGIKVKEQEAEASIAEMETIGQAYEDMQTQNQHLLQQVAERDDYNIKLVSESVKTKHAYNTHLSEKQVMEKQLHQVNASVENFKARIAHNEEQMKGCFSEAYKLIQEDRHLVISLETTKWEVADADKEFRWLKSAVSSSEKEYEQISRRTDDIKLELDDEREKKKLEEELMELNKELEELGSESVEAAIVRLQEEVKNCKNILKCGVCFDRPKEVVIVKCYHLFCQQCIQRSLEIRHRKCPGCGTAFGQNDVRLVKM
Put plainly: yeast two-hybrid.

Assay [2] addresses T2, HUB1 (Histone Monoubiquitination 1), At2g44950, Arabidopsis thaliana (Arabidopsis thaliana) (UniProt Q8RXD6).
T2 sequence: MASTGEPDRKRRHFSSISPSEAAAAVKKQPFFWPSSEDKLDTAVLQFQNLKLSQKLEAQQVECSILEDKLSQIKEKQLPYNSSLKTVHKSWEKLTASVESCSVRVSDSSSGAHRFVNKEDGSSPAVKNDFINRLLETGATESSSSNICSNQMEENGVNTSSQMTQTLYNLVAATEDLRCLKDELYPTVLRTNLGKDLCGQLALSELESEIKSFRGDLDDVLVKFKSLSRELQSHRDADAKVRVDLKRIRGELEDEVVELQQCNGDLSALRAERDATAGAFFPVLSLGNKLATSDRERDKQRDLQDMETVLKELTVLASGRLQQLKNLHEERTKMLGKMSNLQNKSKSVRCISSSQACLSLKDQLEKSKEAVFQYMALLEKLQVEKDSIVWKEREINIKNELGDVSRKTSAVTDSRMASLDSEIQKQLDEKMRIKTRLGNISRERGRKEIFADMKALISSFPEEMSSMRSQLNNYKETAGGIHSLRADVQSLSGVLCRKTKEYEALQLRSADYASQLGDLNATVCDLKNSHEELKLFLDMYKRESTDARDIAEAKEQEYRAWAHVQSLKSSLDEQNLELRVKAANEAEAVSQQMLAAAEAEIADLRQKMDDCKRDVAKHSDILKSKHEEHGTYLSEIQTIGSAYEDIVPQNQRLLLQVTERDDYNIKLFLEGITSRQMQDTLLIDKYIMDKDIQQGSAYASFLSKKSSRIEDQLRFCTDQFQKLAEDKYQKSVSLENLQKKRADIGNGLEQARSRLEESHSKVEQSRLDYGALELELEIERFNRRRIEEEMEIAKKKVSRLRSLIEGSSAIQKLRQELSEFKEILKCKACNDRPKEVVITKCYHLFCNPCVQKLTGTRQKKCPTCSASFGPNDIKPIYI
Put plainly: yeast two-hybrid, pDEST22 HUB1 no RING against pDEST32 HUB1.

Assay [3] concerns the target T3, SEUSS, At1g43850 (Arabidopsis thaliana), Q8W234.
T3 chain: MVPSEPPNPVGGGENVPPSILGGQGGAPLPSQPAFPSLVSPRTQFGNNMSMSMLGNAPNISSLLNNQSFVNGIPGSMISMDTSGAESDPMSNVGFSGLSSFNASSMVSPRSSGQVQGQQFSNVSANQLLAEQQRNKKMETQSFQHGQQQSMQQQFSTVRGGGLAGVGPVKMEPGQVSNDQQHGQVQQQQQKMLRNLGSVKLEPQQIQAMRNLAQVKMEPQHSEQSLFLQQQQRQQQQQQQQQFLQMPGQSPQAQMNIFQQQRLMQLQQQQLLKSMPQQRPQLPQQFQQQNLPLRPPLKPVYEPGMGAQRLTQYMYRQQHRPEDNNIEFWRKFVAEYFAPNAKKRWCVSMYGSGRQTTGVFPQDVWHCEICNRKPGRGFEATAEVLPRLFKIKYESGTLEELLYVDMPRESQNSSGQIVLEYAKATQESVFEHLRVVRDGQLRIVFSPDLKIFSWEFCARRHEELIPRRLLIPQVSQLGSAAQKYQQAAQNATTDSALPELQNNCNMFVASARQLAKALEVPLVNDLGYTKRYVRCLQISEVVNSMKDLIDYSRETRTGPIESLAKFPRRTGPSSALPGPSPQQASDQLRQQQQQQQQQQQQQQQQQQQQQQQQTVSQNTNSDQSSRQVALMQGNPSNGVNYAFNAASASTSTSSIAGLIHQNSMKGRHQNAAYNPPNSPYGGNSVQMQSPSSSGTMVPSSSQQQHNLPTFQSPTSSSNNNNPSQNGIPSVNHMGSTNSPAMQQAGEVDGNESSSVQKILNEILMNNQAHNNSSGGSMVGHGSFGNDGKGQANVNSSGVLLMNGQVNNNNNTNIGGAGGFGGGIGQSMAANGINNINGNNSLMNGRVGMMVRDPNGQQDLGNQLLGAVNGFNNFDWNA
Briefly: yeast two-hybrid. The settings on record: remark: other sources report otherwise.

B1: HUB1 no RING (enzyme)
chain: MASTGEPDRKRRHFSSISPSEAAAAVKKQPFFWPSSEDKLDTAVLQFQNLKLSQKLEAQQVECSILEDKLSQIKEKQLPYNSSLKTVHKSWEKLTASVESCSVRVSDSSSGAHRFVNKEDGSSPAVKNDFINRLLETGATESSSSNICSNQMEENGVNTSSQMTQTLYNLVAATEDLRCLKDELYPTVLRTNLGKDLCGQLALSELESEIKSFRGDLDDVLVKFKSLSRELQSHRDADAKVRVDLKRIRGELEDEVVELQQCNGDLSALRAERDATAGAFFPVLSLGNKLATSDRERDKQRDLQDMETVLKELTVLASGRLQQLKNLHEERTKMLGKMSNLQNKSKSVRCISSSQACLSLKDQLEKSKEAVFQYMALLEKLQVEKDSIVWKEREINIKNELGDVSRKTSAVTDSRMASLDSEIQKQLDEKMRIKTRLGNISRERGRKEIFADMKALISSFPEEMSSMRSQLNNYKETAGGIHSLRADVQSLSGVLCRKTKEYEALQLRSADYASQLGDLNATVCDLKNSHEELKLFLDMYKRESTDARDIAEAKEQEYRAWAHVQSLKSSLDEQNLELRVKAANEAEAVSQQMLAAAEAEIADLRQKMDDCKRDVAKHSDILKSKHEEHGTYLSEIQTIGSAYEDIVPQNQRLLLQVTERDDYNIKLFLEGITSRQMQDTLLIDKYIMDKDIQQGSAYASFLSKKSSRIEDQLRFCTDQFQKLAEDKYQKSVSLENLQKKRADIGNGLEQARSRLEESHSKVEQSRLDYGALELELEIERFNRRRIEEEMEIAKKKVSRLRSLIEGSSAIQKLRQELSEFKEILK
B1: the binding result in assay [1] and in assay [2] was “binds” throughout.

B2: SEUSS, At1g43850 (other, Arabidopsis thaliana, UniProt Q8W234 1-877, looked up)
chain: MVPSEPPNPVGGGENVPPSILGGQGGAPLPSQPAFPSLVSPRTQFGNNMSMSMLGNAPNISSLLNNQSFVNGIPGSMISMDTSGAESDPMSNVGFSGLSSFNASSMVSPRSSGQVQGQQFSNVSANQLLAEQQRNKKMETQSFQHGQQQSMQQQFSTVRGGGLAGVGPVKMEPGQVSNDQQHGQVQQQQQKMLRNLGSVKLEPQQIQAMRNLAQVKMEPQHSEQSLFLQQQQRQQQQQQQQQFLQMPGQSPQAQMNIFQQQRLMQLQQQQLLKSMPQQRPQLPQQFQQQNLPLRPPLKPVYEPGMGAQRLTQYMYRQQHRPEDNNIEFWRKFVAEYFAPNAKKRWCVSMYGSGRQTTGVFPQDVWHCEICNRKPGRGFEATAEVLPRLFKIKYESGTLEELLYVDMPRESQNSSGQIVLEYAKATQESVFEHLRVVRDGQLRIVFSPDLKIFSWEFCARRHEELIPRRLLIPQVSQLGSAAQKYQQAAQNATTDSALPELQNNCNMFVASARQLAKALEVPLVNDLGYTKRYVRCLQISEVVNSMKDLIDYSRETRTGPIESLAKFPRRTGPSSALPGPSPQQASDQLRQQQQQQQQQQQQQQQQQQQQQQQQTVSQNTNSDQSSRQVALMQGNPSNGVNYAFNAASASTSTSSIAGLIHQNSMKGRHQNAAYNPPNSPYGGNSVQMQSPSSSGTMVPSSSQQQHNLPTFQSPTSSSNNNNPSQNGIPSVNHMGSTNSPAMQQAGEVDGNESSSVQKILNEILMNNQAHNNSSGGSMVGHGSFGNDGKGQANVNSSGVLLMNGQVNNNNNTNIGGAGGFGGGIGQSMAANGINNINGNNSLMNGRVGMMVRDPNGQQDLGNQLLGAVNGFNNFDWNA
notes: As prey endogenous; as bait N-terminal GS-TAP fusion; in yeast two-hybrid an AD fusion
As to B2, in assay [3], the binding entry is recorded as “binds”.

Source of the values: US20110162109A1 (BASF PLANT SCIENCE, published 2011).
